Molecules are shown by their SMILES. Counter-ions that a name gives are not always drawn. Some of the results follow. Single values of this set are uncertain.

The assay deals with Peyronie's disease tunica albuginea primary fibroblasts. The assay is described as follows: cell viability (DRAQ5 nuclear stain) relative to TGF-beta1-only control; higher = more viable cells. The following applies: 10 µM; TGF-beta1 10 ng/mL; 72 h.
Usually cell viability stands for a read-out of living cells in per cent, often relative to untreated cells. As for `CCOC(=O)OC(C)OC1=C(C(=O)Nc2ccccn2)N(C)S(=O)(=O)c2ccccc21` (stereo not given) [Ampiroxicam], the cell viability is 100%.

`O=C(Nc1c(Cl)cncc1Cl)c1ccc(OC(F)F)c(OCC2CC2)c1` [Roflumilast]: the cell viability worked out at 104%.

For the molecule `CC(=O)N[C@H]1[C@H]([C@H](O)[C@H](O)CO)OC(C(=O)O)=C[C@@H]1NC(=N)N` [Zanamivir], the cell viability amounted to 94.9%.

In the case of `CCC(=O)O[C@]1(C(=O)CCl)[C@@H](C)C[C@H]2[C@@H]3C[C@H](F)C4=CC(=O)C=C[C@]4(C)[C@@]3(F)[C@@H](O)C[C@@]21C` [Halobetasol Propionate], the cell viability worked out at 78%.

In the case of `CC[C@H](C)[C@H](NC(=O)[C@@H]1CCCN1C(=O)CNC(=O)[C@H](Cc1ccccc1)NC(=O)[C@H](CC(N)=O)NC(=O)[C@H](CC(N)=O)NC(=O)[C@H](CO)NC(=O)[C@H](CO)NC(=O)[C@H](Cc1c[nH]cn1)NC(=O)[C@@H](NC(=O)[C@H](CC(C)C)NC(=O)[C@H](Cc1ccccc1)NC(=O)[C@H](CC(N)=O)NC(=O)[C@H](C)NC(=O)[C@H](CC(C)C)NC(=O)[C@H](CCCNC(=N)N)NC(=O)[C@H](CCC(N)=O)NC(=O)[C@@H](NC(=O)[C@H](C)NC(=O)[C@@H]1CSSC[C@H](NC(=O)[C@@H](N)CCCCN)C(=O)N[C@@H](CC(N)=O)C(=O)N[C@@H]([C@@H](C)O)C(=O)N[C@@H](C)C(=O)N[C@@H]([C@@H](C)O)C(=O)N1)[C@@H](C)O)C(C)C)C(=O)N[C@@H](CC(C)C)C(=O)N1CCC[C@H]1C(=O)N1CCC[C@H]1C(=O)N[C@H](C(=O)N[C@@H](CC(N)=O)C(=O)N[C@H](C(=O)NCC(=O)N[C@@H](CO)C(=O)N[C@@H](CC(N)=O)C(=O)N[C@H](C(=O)N[C@@H](Cc1ccc(O)cc1)C(N)=O)[C@@H](C)O)C(C)C)[C@@H](C)O` [Pramlintide Acetate], the cell viability was determined as 123%.

`CCN1CC(CCN2CCOCC2)C(c2ccccc2)(c2ccccc2)C1=O` (stereo not given) [Doxapram]: the cell viability was determined as 89.4%.

In the case of `CCN1CC(CCN2CCOCC2)C(c2ccccc2)(c2ccccc2)C1=O` (stereo not given) [Doxapram HCl], the cell viability came out at 95.7%.

Take `CC(=O)OCC(=O)[C@@]12N=C(C)O[C@@H]1C[C@H]1[C@@H]3CCC4=CC(=O)C=C[C@]4(C)[C@H]3[C@@H](O)C[C@@]12C` [Deflazacort]: the cell viability is 81.4%.

Turning to `OCc1cc(C(O)CNCCCCCCOCCCCc2ccccc2)ccc1O` (stereo not given) [Salmeterol], the cell viability turned out to be 69.5%.

As to `OCc1cc(C(O)CNCCCCCCOCCCCc2ccccc2)ccc1O` (stereo not given) [Salmeterol Xinafoate], the cell viability is 68.6%.

As to `C[C@@H](CN1CC(=O)NC(=O)C1)N1CC(=O)NC(=O)C1` [Dexrazoxane HCl (ICRF-187, ADR-529)], the cell viability was 90.9%.

On to `C[C@@H](CN1CC(=O)NC(=O)C1)N1CC(=O)NC(=O)C1` [Dexrazoxane], for which the cell viability stood at 93.5%.

As for `CC(=O)Nc1ccc(CC(=O)O)cc1` [Actarit], the cell viability stood at 87.5%.

As for `CC1CCC(C(C)C)C(O)C1` (single isomer, unassigned; (-)) [(-)-Menthol], the cell viability worked out at 89.2%.

On to `CNCCC(Oc1ccc(C(F)(F)F)cc1)c1ccccc1` (stereo not given) [Fluoxetine HCl], for which the cell viability came to 80.5%.

On to `Cc1nc2n(c(=O)c1CCN1CCC(c3noc4cc(F)ccc34)CC1)CCCC2` [Risperidone], for which the cell viability worked out at 95%.

Regarding `N=C(N)NCCC[C@H](N)C(=O)O` [L-Arginine HCl (L-Arg)], the cell viability amounted to 84%.

On to `CCCCOc1cc(C(=O)NCCN(CC)CC)c2ccccc2n1` [Dibucaine HCl], for which the cell viability came to 93.3%.

In the case of `CCCCOc1cc(C(=O)NCCN(CC)CC)c2ccccc2n1` [Cinchocaine], the cell viability turned out to be 80%.

`CCS(=O)(=O)CCn1c([N+](=O)[O-])cnc1C` [Tinidazole]: the cell viability amounted to 91.2%.

Take `N#C[C@@H]1C[C@@H]2C[C@@H]2N1C(=O)[C@@H](N)C12CC3CC(CC(O)(C3)C1)C2` [Saxagliptin]: the cell viability worked out at 85.5%.

With `N#C[C@@H]1C[C@@H]2C[C@@H]2N1C(=O)[C@@H](N)C12CC3CC(CC(O)(C3)C1)C2` [Saxagliptin hydrate], the cell viability came out at 97.7%.

On to `O=C1CCc2cc(OCCCCc3nnnn3C3CCCCC3)ccc2N1` [Cilostazol], for which the cell viability was found to be 97.1%.

Take `CCC1=C(C)CN(C(=O)NCCc2ccc(S(=O)(=O)NC(=O)N[C@H]3CC[C@H](C)CC3)cc2)C1=O` [Glimepiride]: the cell viability was found to be 67.6%.

`CC1(C)NC(=O)N(c2ccc([N+](=O)[O-])c(C(F)(F)F)c2)C1=O` [Nilutamide]: the cell viability worked out at 86.5%.

For the molecule `CCCCCCc1ccc(O)cc1O` [Hexylresorcinol], the cell viability stood at 83.8%.

As to `O=C(/C=C\n1cnc(-c2cc(C(F)(F)F)cc(C(F)(F)F)c2)n1)NNc1cnccn1` [Selinexor (KPT-330)], the cell viability worked out at 56%.

Regarding `COC(=O)[C@@H]1[C@H]2C[C@H]3c4[nH]c5ccccc5c4CCN3C[C@@H]2CC[C@@H]1O` [Yohimbine HCl], the cell viability is 89.9%.

For the molecule `CC(C)NCC(O)COc1cccc2ccccc12` (stereo not given) [Propranolol HCl], the cell viability was found to be 76%.

As to `CCCCc1nc(C)c(CC(=S)N(C)C)c(=O)n1Cc1ccc(-c2ccccc2-c2nnn[nH]2)cc1` [Fimasartan], the cell viability worked out at 97.3%.

With `Cc1nc(NC(=O)N2CCC[C@H]2C(N)=O)sc1-c1ccnc(C(C)(C)C(F)(F)F)c1` [Alpelisib (BYL719)], the cell viability is 63.8%.

Take `CCOC(=O)C1=C[C@]2(CC)CCCN3CCc4c(n1c1ccccc41)[C@@H]32` [Vinpocetine]: the cell viability was 94.8%.

Regarding `CN1CCC(COc2cnc(-c3cccc(Cn4nc(-c5cccc(C#N)c5)ccc4=O)c3)nc2)CC1`, the cell viability is 81.3%.

As to `CC(C)c1cc(C(=O)N2Cc3ccc(CN4CCN(C)CC4)cc3C2)c(O)cc1O`, the cell viability amounted to 56.3%.

Consider `Cc1cccc(CN2CCN(C(c3ccccc3)c3ccc(Cl)cc3)CC2)c1` (stereo not given) [Meclizine 2HCl], for which the cell viability amounted to 93.3%.

Regarding `COc1cnc(NS(=O)(=O)c2ccc(N)cc2)nc1` [Sulfameter], the cell viability was 95%.

For `O=C(O)CCC(=O)Nc1ccc(S(=O)(=O)Nc2nccs2)cc1` [Succinylsulfathiazole], the cell viability was 95.6%.

On to `O=NN(CCCl)C(=O)NC1CCCCC1` [Lomustine], for which the cell viability worked out at 76.9%.

In the case of `COc1ccccc1O` [Guaiacol], the cell viability was determined as 95.2%.

For the molecule `CCCCC(C)(O)C/C=C/[C@H]1[C@H](O)CC(=O)[C@@H]1CCCCCCC(=O)OC` (mixture of isomers) [Misoprostol], the cell viability was 83%.

As for `CCCCCCCCc1ccc(CCC(N)(CO)CO)cc1` [Fingolimod (FTY720) HCl], the cell viability amounted to 49.4%.

In the case of `CC(=O)OCC1=C(C(=O)O)N2C(=O)[C@@H](NC(=O)CSc3ccncc3)[C@H]2SC1` [Cephapirin Sodium], the cell viability is 52.5%.

With `O=C1OC2(c3ccc(O)cc3Oc3cc(O)ccc32)c2ccccc21` [Fluorescein], the cell viability worked out at 92%.

Turning to `CN(C)[C@@H]1C(O)=C(C(N)=O)C(=O)[C@@]2(O)C(O)=C3C(=O)c4c(O)ccc(Cl)c4[C@@](C)(O)[C@H]3C[C@@H]12` [Chlortetracycline HCl], the cell viability came out at 92%.

As for `COc1cc(C(=O)NC2CCCNC2)cc(OC)c1OC` (stereo not given) [Troxipide], the cell viability came out at 99.2%.

In the case of `C[C@]12CC[C@@H]3c4ccc(O)cc4CC[C@H]3[C@@H]1CCC2=O` [Estrone], the cell viability is 95.2%.

Consider `CN1CC2c3ccccc3Oc3ccc(Cl)cc3C2C1` (stereo not given) [Asenapine maleate], for which the cell viability was 54.7%.

As to `c1ccc2[nH]c(-c3cscn3)nc2c1` [Thiabendazole], the cell viability was 93.5%.

As for `OC[C@@H](O)[C@@H](O[C@@H]1O[C@H](CO)[C@H](O)[C@H](O)[C@H]1O)[C@H](O)[C@@H](O)CO` [Lactitol], the cell viability was determined as 83%.

Consider `OC[C@@H](O)[C@@H](O[C@@H]1O[C@H](CO)[C@H](O)[C@H](O)[C@H]1O)[C@H](O)[C@@H](O)CO` [Lactitol monohydrate], for which the cell viability was 78.6%.

On to `CC(C)(C)NC(=O)N[C@H](C(=O)N1C[C@H]2[C@@H]([C@H]1C(=O)NC(CC1CCC1)C(=O)C(N)=O)C2(C)C)C(C)(C)C` (stereo not given in full) [Boceprevir], for which the cell viability worked out at 94.9%.

In the case of `CC1(C)S[C@@H]2[C@H](NC(=O)[C@H](NC(=O)N3CCN(S(C)(=O)=O)C3=O)c3ccccc3)C(=O)N2[C@H]1C(=O)O` [Mezlocillin Sodium], the cell viability was 90.7%.

Turning to `Cn1c(=O)cc(N2CCC[C@@H](N)C2)n(Cc2ccccc2C#N)c1=O` [Alogliptin], the cell viability turned out to be 110%.

On to `CCCCCCCN(CC)CCCC(O)c1ccc(NS(C)(=O)=O)cc1` (stereo not given) [Ibutilide Fumarate], for which the cell viability amounted to 84.4%.

As to `Cc1nnc(C(C)C)n1C1C[C@H]2CC[C@@H](C1)N2CC[C@H](NC(=O)C1CCC(F)(F)CC1)c1ccccc1` (stereo in doubt) [Maraviroc], the cell viability came to 94.4%.

With `COc1cc(Nc2ncc(F)c(Nc3ccc4c(n3)N(COP(=O)(O)O)C(=O)C(C)(C)O4)n2)cc(OC)c1OC` [R788 (Fostamatinib) Disodium], the cell viability turned out to be 38%.

Consider `COc1cc(Nc2ncc(F)c(Nc3ccc4c(n3)N(COP(=O)(O)O)C(=O)C(C)(C)O4)n2)cc(OC)c1OC` [Fostamatinib (R788)], for which the cell viability came to 29%.

Take `COc1ccc(-c2cc(=O)c3c(O)cc(O[C@@H]4O[C@H](CO[C@@H]5O[C@@H](C)[C@H](O)[C@@H](O)[C@H]5O)[C@@H](O)[C@H](O)[C@H]4O)cc3o2)cc1O` [Diosmin]: the cell viability was 92.4%.

For the molecule `FC(F)(F)c1ccc(CNc2ccc(Cc3c[nH]c4ncc(Cl)cc34)cn2)cn1` [Pexidartinib (PLX3397)], the cell viability was determined as 72.1%.

For `Cn1c(=O)c2[nH]cnc2n(C)c1=O` [Aminophylline], the cell viability came out at 93.8%.

For `CS(=O)(=O)c1ccc(C2=C(c3ccccc3)C(=O)OC2)cc1` [Rofecoxib], the cell viability is 94.4%.

With `Cc1[nH]c(=O)c(C#N)cc1-c1ccncc1` [Milrinone], the cell viability worked out at 87.5%.

Consider `CN(C)CCC=C1c2ccccc2CCc2ccccc21` [Amitriptyline HCl], for which the cell viability turned out to be 90%.

On to `Cc1ccnc2c1NC(=O)c1cccnc1N2C1CC1` [Nevirapine], for which the cell viability was 84.1%.

As for `C#C[C@]1(O)CC[C@H]2[C@@H]3CCc4cc(OC5CCCC5)ccc4[C@H]3CC[C@@]21C` [Quinestrol], the cell viability turned out to be 82.5%.
